Measurements as given in article doi:10.1101/2022.06.12.495191.
No constants are given. Whether binding was seen depends on the method and setting. Binding seen in cells or lysates may run through a third protein. A yes stands for co-enrichment or nearness to the bait. Other partners may have been found. For part of these data: Where a sequence is shown, tags or fusion partners need not be part of it.

T1: 3xFLAG-MINU2 (MINUSCULE2, 3xFLAG-tagged) (Arabidopsis) (UniProt F4K128)
T1 sequence: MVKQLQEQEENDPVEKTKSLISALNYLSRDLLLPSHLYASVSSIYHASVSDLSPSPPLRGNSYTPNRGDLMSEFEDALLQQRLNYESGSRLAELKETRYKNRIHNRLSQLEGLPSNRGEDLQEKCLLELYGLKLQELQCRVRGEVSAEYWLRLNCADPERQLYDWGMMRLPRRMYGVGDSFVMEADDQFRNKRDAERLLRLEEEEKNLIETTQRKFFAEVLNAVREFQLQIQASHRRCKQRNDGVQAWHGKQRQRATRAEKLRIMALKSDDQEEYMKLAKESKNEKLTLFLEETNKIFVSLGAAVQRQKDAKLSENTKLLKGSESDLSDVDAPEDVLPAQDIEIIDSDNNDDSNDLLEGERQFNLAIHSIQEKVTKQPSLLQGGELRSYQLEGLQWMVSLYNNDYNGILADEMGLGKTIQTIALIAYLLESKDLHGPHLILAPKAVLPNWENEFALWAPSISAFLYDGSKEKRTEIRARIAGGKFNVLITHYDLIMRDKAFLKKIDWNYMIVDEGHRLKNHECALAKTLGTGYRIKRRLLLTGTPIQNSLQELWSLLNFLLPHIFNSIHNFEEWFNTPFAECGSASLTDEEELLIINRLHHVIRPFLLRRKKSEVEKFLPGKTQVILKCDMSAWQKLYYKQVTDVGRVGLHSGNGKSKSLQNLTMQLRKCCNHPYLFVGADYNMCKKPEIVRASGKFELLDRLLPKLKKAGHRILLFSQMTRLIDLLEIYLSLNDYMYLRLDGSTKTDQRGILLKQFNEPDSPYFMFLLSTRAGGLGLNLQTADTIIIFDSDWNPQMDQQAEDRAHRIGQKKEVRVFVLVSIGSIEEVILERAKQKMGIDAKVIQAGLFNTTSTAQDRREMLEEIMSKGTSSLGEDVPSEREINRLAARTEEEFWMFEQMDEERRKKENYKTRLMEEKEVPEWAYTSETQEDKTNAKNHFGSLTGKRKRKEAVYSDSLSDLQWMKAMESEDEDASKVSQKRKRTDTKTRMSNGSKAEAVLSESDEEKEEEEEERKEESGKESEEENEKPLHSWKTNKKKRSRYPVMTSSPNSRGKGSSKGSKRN


Experiments:
[1] = target: T1, 3xFLAG-MINU2 (MINUSCULE2, 3xFLAG-tagged) (Arabidopsis); test: affinity purification with mass spectrometry
[2] = target: TPF2-3xFLAG (TRIPLE PHD FINGERS 2, 3xFLAG-tagged) (Arabidopsis); test: affinity purification with mass spectrometry

Row | binding [1] | binding [2] | Molecule
1 | binds |  | TRIPLE PHD FINGERS 1 (TPF1), endogenous
2 | binds |  | TRIPLE PHD FINGERS 2 (TPF2), endogenous
3 |  | binds | MINUSCULE2 (MINU2), endogenous (enzyme, UniProt F4K128 1-1064) MVKQLQEQEENDPVEKTKSLISALNYLSRDLLLPSHLYASVSSIYHASVSDLSPSPPLRGNSYTPNRGDLMSEFEDALLQQRLNYESGSRLAELKETRYKNRIHNRLSQLEGLPSNRGEDLQEKCLLELYGLKLQELQCRVRGEVSAEYWLRLNCADPERQLYDWGMMRLPRRMYGVGDSFVMEADDQFRNKRDAERLLRLEEEEKNLIETTQRKFFAEVLNAVREFQLQIQASHRRCKQRNDGVQAWHGKQRQRATRAEKLRIMALKSDDQEEYMKLAKESKNEKLTLFLEETNKIFVSLGAAVQRQKDAKLSENTKLLKGSESDLSDVDAPEDVLPAQDIEIIDSDNNDDSNDLLEGERQFNLAIHSIQEKVTKQPSLLQGGELRSYQLEGLQWMVSLYNNDYNGILADEMGLGKTIQTIALIAYLLESKDLHGPHLILAPKAVLPNWENEFALWAPSISAFLYDGSKEKRTEIRARIAGGKFNVLITHYDLIMRDKAFLKKIDWNYMIVDEGHRLKNHECALAKTLGTGYRIKRRLLLTGTPIQNSLQELWSLLNFLLPHIFNSIHNFEEWFNTPFAECGSASLTDEEELLIINRLHHVIRPFLLRRKKSEVEKFLPGKTQVILKCDMSAWQKLYYKQVTDVGRVGLHSGNGKSKSLQNLTMQLRKCCNHPYLFVGADYNMCKKPEIVRASGKFELLDRLLPKLKKAGHRILLFSQMTRLIDLLEIYLSLNDYMYLRLDGSTKTDQRGILLKQFNEPDSPYFMFLLSTRAGGLGLNLQTADTIIIFDSDWNPQMDQQAEDRAHRIGQKKEVRVFVLVSIGSIEEVILERAKQKMGIDAKVIQAGLFNTTSTAQDRREMLEEIMSKGTSSLGEDVPSEREINRLAARTEEEFWMFEQMDEERRKKENYKTRLMEEKEVPEWAYTSETQEDKTNAKNHFGSLTGKRKRKEAVYSDSLSDLQWMKAMESEDEDASKVSQKRKRTDTKTRMSNGSKAEAVLSESDEEKEEEEEERKEESGKESEEENEKPLHSWKTNKKKRSRYPVMTSSPNSRGKGSSKGSKRN
